Laboratory results taken from PubChem BioAssay AID1963822 (ICCB-Longwood Screening Facility, Harvard Medical School, 2024).
The list shows a part of the results.

Test: growth inhibitors of anaerobic choline-fed gram-negatives, minimal medium, absorbance (AID 1963822)
Conditions: Gram-negative bacterium anaerobic choline minimal medium, measured here: choline growth z-score, timepoint 1, stronger effect = lower value
For CN(C(=O)Cc1ccccc1)[C@@H]1CC[C@]2(CCCO2)C[C@H]1N1CCCC1, the z-score was 0.4.
Compound NC(=O)Nc1ccc([As](=O)(O)O)cc1 has a z-score of 0.27.
Compound CN(C(=O)Cc1ccc(Cl)c(Cl)c1)[C@@H]1CC[C@]2(CCCO2)C[C@H]1N1CCCC1 has a z-score of 0.01.
Compound CN(C(=O)Cc1ccc(Cl)c(Cl)c1)[C@@H]1CCCC[C@H]1N1CCCC1 has a z-score of -0.18.
CN(C)CCS showed a z-score of -1.54.
Compound O=C(O[C@H]1CN2CCC1CC2)C1NCc2ccccc2[C@@H]1c1ccccc1 (stereo not given in full) has a z-score of 0.6.
O=P(O)(O)F showed a z-score of 0.2.
With C/C1=C2N=C(/C=C3N=C(/C(C)=C4\[N-][C@@](C)([C@@H]5N=C1[C@](C)(CCC(=O)NC[C@@H](C)OP(=O)([O-])O[C@H]1[C@@H](O)[C@@H](n6cnc7cc(C)c(C)cc76)O[C@@H]1CO)[C@H]5CC(N)=O)[C@@](C)(CC(N)=O)[C@@H]4CCC(N)=O)[C@@](C)(CC(N)=O)[C@@H]\3CCC(N)=O)C(C)(C)[C@@H]/2CCC(N)=O.[C-]#N.[Co+3] the z-score was 0.39.
In the case of CN(C(=O)Cc1ccc(Cl)c(Cl)c1)[C@@H]1CCCC[C@@H]1N1CCCC1, the z-score is reported as -0.31.
With O=C(OC1CN2CCC1CC2)c1ccccc1 (stereo not given) the z-score was 0.18.
